# Assay results as given in PubChem BioAssay AID504834 (National Center for Advancing Translational Sciences (NCATS), 2011).
# About 22,000 (6.9%) of roughly 320,000 compounds were called active. This list was built around the results that the source calls inconclusive (neither active nor inactive); the mix of calls is not that of the screen. Calls follow the shape of the dose curve; as a rule, active = well fitted inhibition curve with a large enough effect; inconclusive = small, poorly fitted or top-dose-only effect, or another doubt; inactive = no such curve, though single readings can be large or run the other way. Potencies beside an inconclusive call are fits to weak or partial responses and may not hold up.
# Assay: Primary qHTS for delayed death inhibitors of the malarial parasite plastid, 96 hour incubation
# Details: P. falciparum luciferase reporter growth; series mostly up to 28.7 µM; activity change, negative = inhibition: at the top concentration
# In short: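 P. falciparum expressing integrated firefly luciferase grown in erythrocytes (2% hematocrit, 0.05% parasitemia final) with compounds for 96 hours at 37 C, 5% CO2. Growth inhibition read as loss of luminescence after adding luciferase detection reagent.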
# % is scaled to controls: 0 for no effect and ±100 for the full control effect; potency is read from the fitted curve at half-maximal effect.
Compound,Potency,"activity change, negative = inhibition"
CCCc1cc(Nc2ccccc2OCC)n2ncnc2n1,"inconclusive: 18.5 µM [inhibitor, single point]",
CC(C)(C)C(=O)Nc1ccc(/C=C/C(=O)c2ccco2)cc1,"inconclusive: 14.7 µM [inhibitor, single point]",
CC(C)Cn1c(SCC(=O)c2c(N)n(C)c(=O)n(C)c2=O)nc2ccccc21,"inconclusive: 0.522 µM [inhibitor, full curve]",
Cc1ccccc1CNC(=O)Cc1ccccc1[N+](=O)[O-],"inconclusive: 18.5 µM [inhibitor, single point]",
O=S(=O)(/N=C(/Nc1ccccn1)c1ccc(Cl)cc1)c1ccc(Cl)cc1,"inconclusive: 10.4 µM [inhibitor, single point]",
CN1CCN(c2ccc([N+](=O)[O-])c(Sc3ccccn3)c2)CC1,active: 0.294 µM,
O=C(N/N=C/c1cc2c(cc1[N+](=O)[O-])OCO2)c1ccc2c(c1)OCO2,,inactive: -28.5%
COc1ccc(NC(=O)CCC(=O)Nc2ccc3nc(N4CCOCC4)cc(C)c3c2)c(OC)c1,,inactive: -3.02%
COC(=O)CN1C(=O)COc2ccc(S(=O)(=O)NCc3ccc(Cl)cc3)cc21,"inconclusive: 2.33 µM [inhibitor, partial curve, poor fit]",
Nc1c(C(=O)Nc2ccccc2)sc2nc3c(c(-c4ccco4)c12)CCC3,"inconclusive: 0.37 µM [inhibitor, full curve, poor fit]",
CCOC(=O)C1(Cc2cccc(OC)c2)CCN(Cc2cccn2-c2nccs2)CC1,"inconclusive: 1.17 µM [inhibitor, partial curve, poor fit]",
Cc1cc(NC(=O)C(C)SCC(=O)Nc2nnc(CC(C)C)s2)no1 (stereo not given),"inconclusive: 0.0026 µM [inhibitor, full curve, poor fit]",
CN(CP(=O)(O)CCc1ccccc1)S(C)(=O)=O,"inconclusive: 18.5 µM [inhibitor, single point]",
C=CCNC(C(=O)Nc1cccc(OC)c1)c1ccccc1 (stereo not given),"inconclusive: 11.7 µM [inhibitor, partial curve]",
CC(C)OCCCNC(=O)Cn1nc(-c2ccccc2)ccc1=O,,inactive: 176%
O=C(O)c1cc(-c2ccco2)nc2cc3ccccc3cc12,,inactive: 0%
CN1C[C@@H]2C[C@@H](c3cccn3-c3ccccn3)N3CCC[C@@]23C1=O,,inactive: -11.5%
COc1ccc(N2CCN(CCCNC(=O)C3CCCN(S(=O)(=O)c4c(C)n[nH]c4C)C3)CC2)cc1 (stereo not given),"inconclusive: 5.86 µM [inhibitor, partial curve, poor fit]",
O=C(Nc1ccc(CN2CCOCC2)cc1)c1ccc(-c2cc(Cl)ccc2Cl)o1,"inconclusive: 11.7 µM [inhibitor, single point]",
O=C(Nc1ccc(OC(F)F)cc1)Nc1cccc(C(F)(F)F)c1,active: 5.22 µM,
COc1ccc(Oc2nc3ccccc3nc2C(F)(F)F)cc1,"inconclusive: 0.0928 µM [inhibitor, full curve, poor fit]",
CC(C)CN(Cc1cc(=O)oc2cc3c(cc12)CCCC3)CC(C)C,"inconclusive: 0.37 µM [inhibitor, full curve, poor fit]",
CC(Oc1ccccc1)C(=O)NC1C(=O)N2C1SC(C)(C)C2C(=O)O (stereo not given),,inactive: 52.1%

# Rewritten tab-delimited: 2 of the compounds above.
Compound	Potency	activity change, negative = inhibition
Cc1ccccc1CNC(=O)Cc1ccccc1[N+](=O)[O-]	inconclusive: 18.5 µM [inhibitor, single point]	
COc1ccc(N2CCN(CCCNC(=O)C3CCCN(S(=O)(=O)c4c(C)n[nH]c4C)C3)CC2)cc1 (stereo not given)	inconclusive: 5.86 µM [inhibitor, partial curve, poor fit]	

# (list continues)

Compound,Potency,"activity change, negative = inhibition"
CC(C)c1cccc(C(C)C)c1OC(=O)[C@H]1OC(C(C)(C)C)=C[C@@H]1c1ccccc1,"inconclusive: 11.7 µM [inhibitor, partial curve]",
O=C(NC1CCN(C(=S)NCCc2ccccc2)CC1)C1CCCCC1,,inactive: 19.2%
Oc1c(Cl)cc(Cl)cc1CNc1ccc(Br)cn1,,inactive: 39.5%
CN(C)CCCN(C(=O)c1ccc2c(c1)CCCC2)c1nc2c(F)cccc2s1,"inconclusive: 2.33 µM [inhibitor, full curve, poor fit]",
O=C(CN1C(=O)CCS(=O)(=O)c2ccccc21)Nc1cccc(Cl)c1,,inactive: 27.8%
CC(C)c1nc2ccccc2c2nnc(SCC(=O)NCc3ccco3)n12,"inconclusive: 0.0828 µM [inhibitor, full curve, poor fit]",
O=C(NCCC(=O)N1CCC2(CC1)NCCc1[nH]cnc12)c1cccc(Br)c1,,inactive: -15.8%
O=C(Nc1ccccc1C(=O)O)c1ccc(NC(=O)C2CC2)cc1,"inconclusive: 18.5 µM [inhibitor, single point]",
Cc1ccc(N=c2c([N+](=O)[O-])nn(-c3ccc(Cl)cc3)n2O)cc1C,active: 0.828 µM,
O=C(NCCc1ccc(Cl)cc1)c1cccc(N2CCCC2=O)c1,"inconclusive: 2.33 µM [inhibitor, single point]",
Cc1ccc(S(=O)(=O)N2CCN(C(=O)N(C)C)CC2)cc1,"inconclusive: 4.65 µM [inhibitor, partial curve]",
O=C(Nc1c(-c2ccccc2)nc2ccc(Cl)cn12)c1cccs1,active: 5.22 µM,
CCOc1ncccc1C(=O)OCc1cn2cc(Cl)ccc2n1,"inconclusive: 0.0586 µM [inhibitor, full curve, poor fit]",
O=C(COC(=O)CCCSc1nc2ccccc2[nH]1)Nc1ccc(Cl)cc1,,inactive: -22.6%
Cc1c(NC(=O)c2ccc(-c3ccc([N+](=O)[O-])cc3Cl)o2)c(=O)n(-c2ccccc2)n1C,active: 9.28 µM,
COc1cccc(C(=O)C2CCCN(C(=O)CCc3scnc3C)C2)c1 (stereo not given),"inconclusive: 18.5 µM [inhibitor, single point]",
COc1cccc(C(c2sc3nc(C)nn3c2O)N2CCN(c3ccccc3F)CC2)c1 (stereo not given),"inconclusive: 11.7 µM [inhibitor, partial curve, poor fit]",
CCc1ccccc1NCC(=O)Nc1ccccc1C(=O)OC,"inconclusive: 10.4 µM [inhibitor, single point]",
COc1ccc(C2CC(=O)C=C(NCc3ccccc3)C2)cc1 (stereo not given),"inconclusive: 2.62 µM [inhibitor, full curve]",
Cc1cnc(C(=O)OCC(=O)N=c2sccn2Cc2ccccc2Cl)cn1,,inactive: 23.1%
O=C(NCc1ccccc1)C1(c2cccc(F)c2)CCCC1,,inactive: 1.4%
CC(=O)Nc1ccc(NC(=O)c2cc(=O)c3cc(C)c(C)cc3o2)cc1,"inconclusive: 5.22 µM [inhibitor, partial curve]",
